Reference: PubChem BioAssay AID493014 (National Center for Advancing Translational Sciences (NCATS), 2011)
Among all 340,000 compounds or so, about 170 (0.05%) were called active. The shares of active, inactive and inconclusive entries below differ from those in the screen. The call rests on the fitted dose curve; in most records, active means well fitted inhibition curve with a large enough effect in the signal ratio, with a control signal flat (not every such curve was filed as active); inconclusive means small, poorly fitted or top-dose-only effect, or effect the other way, or a change in a side signal; inactive means flat fitted curve, though single readings scatter; the % refers to the signal ratio. Where the call is inconclusive, the potency comes from a doubtful curve fit.

Test: qHTS Assay to Find Inhibitors of Chronic Active B-Cell Receptor Signaling;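 on activity change, negative = inhibition: plate controls were basal doxycycline-induced cells for no effect and cells given 10 µM MG132 for full effect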
Details: ABC-DLBCL IkBa-CBG/CBR reporter, luminescence ratio (green luciferase fused to IkBa over red control in TMD8 lymphoma cells), 4 h; activity change, negative = inhibition: at 46.1 µM (top of the series)
Method in brief: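 Compounds up to 46 uM were incubated four hours with TMD8 cells whose green CBG68 luciferase is fused to IkappaBalpha; red CBR luminescence normalised the signal, and concentration-effect curves were fitted to fusion, red and ratio data.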
Potency means the concentration at half of the fitted maximal effect.

SMILES	activity change, negative = inhibition	Potency
CCC(C)NC(=O)c1c(N)n(/N=C/c2cccs2)c2nc3ccccc3nc12 (configuration not stated)	inconclusive: -20%	–
Cc1cc(C(=O)COC(=O)c2ccc(CO)cc2)c(C)n1CC1COc2ccccc2O1 (configuration not stated)	inactive	–
Cc1ccccc1NC(=O)c1ccc(CSc2ncccn2)cc1	–	inconclusive: 2 µM [falling, full curve]
O=C1c2ccccc2C(=O)N1OS(=O)(=O)c1ccccc1	inactive	–
O=[N+]([O-])c1c(NCCO)cc(N2CCC3(CC2)OCCO3)c2nonc12	inconclusive: -1%	–
NS(=O)(=O)c1ccc(-c2ccc(/C=N/NC(=O)c3ccccc3O)o2)cc1	–	inconclusive: 31.6 µM [rising, single point]
CCOCC(=O)OCC(=O)NC12CC3CC(CC(C3)C1)C2	inactive	–
COc1ccccc1-c1ccc(Nc2cccc(C(F)(F)F)c2)nn1	inconclusive: 16.8%	–
O=S(=O)(c1ccc2nc(-c3ccco3)c(-c3ccco3)nc2c1)N1CCOCC1	inactive	–
O=C(c1cc(-c2ccc(O)cc2)on1)N1CCCC1	–	inconclusive: 25.1 µM [falling, partial curve]
O=C(OCc1nc2ccc(Cl)cc2n1CCO)c1ccc2c(c1)OCO2	–	inconclusive: 20 µM [rising, single point]
CCOC(=O)c1ccc(NC(=O)c2ccccc2[N+](=O)[O-])cc1	–	inconclusive: 29.1 µM [falling, single point]
CCOC(=O)N1CCN(C(=O)c2c(-c3ccccc3)noc2C)CC1	inconclusive: 7.91%	–
COc1ccc2oc(=N)c(C(=O)Nc3ccc(Cl)cc3)cc2c1	inactive	–
CN(C)CCC(=O)c1cccc(Br)c1	inconclusive: -0.822%	–
Cc1noc(C)c1C(=O)Nc1nnc(-c2ccccc2)s1	–	inconclusive: 31.6 µM [rising, single point]
COCC(=O)Nc1cc(C(=O)Nc2ccccc2)ccc1Cl	–	inconclusive: 14.1 µM [falling, partial curve]
COc1ccc(C(=O)Nc2ccc(NC(=O)c3ccccn3)cn2)cc1	inconclusive: 12.4%	–
COC(=O)COc1cccc2c(=O)n(CC(=O)NCc3ccc(F)cc3)ccc12	–	inconclusive: 7.08 µM [falling, full curve, poor fit]
O=C(Nc1nnc(S(=O)(=O)N2CCOCC2)s1)c1ccccc1F	inconclusive: 2%	–
Nc1ccc(-c2nc3c(Cl)c(N)ccc3[nH]2)cc1	–	inconclusive: 12.6 µM [falling, partial curve, poor fit]
CCCn1c(CNC(=O)c2cccs2)nc2ccccc21	inconclusive: -25.4%	–
COc1ccc(NC(=O)C/C(C)=N/NC(=O)C(=O)NC2CCCCC2)c(OC)c1	–	inconclusive: 3.98 µM [falling, partial curve]
NC(=O)C1CCCN(C(=O)c2cccc(NC(=O)c3cccs3)c2)C1 (configuration not stated)	inconclusive: 8.16%	–
Cc1ncc([N+](=O)[O-])n1CC(=O)N/N=C/c1ccccc1F	inconclusive: 3.85%	–
NC(=O)C1CCN(C(=O)c2cc(-c3ccc(Cl)cc3)nc3ccccc23)CC1	inactive	–

Three structures out of the list, ordered by number of heavy atoms, smallest number first.
SMILES	activity change, negative = inhibition	Potency
CCCn1c(CNC(=O)c2cccs2)nc2ccccc21	inconclusive: -25.4%	–
Cc1ccccc1NC(=O)c1ccc(CSc2ncccn2)cc1	–	inconclusive: 2 µM [falling, full curve]
Cc1cc(C(=O)COC(=O)c2ccc(CO)cc2)c(C)n1CC1COc2ccccc2O1 (configuration not stated)	inactive	–

The results go on.

SMILES	activity change, negative = inhibition	Potency
ONC(=Nc1ccccc1)c1ccccc1Cl	–	inconclusive: 15.8 µM [falling, single point]
C=CC[C@]12CCc3ccccc3C1N(c1ccc(C(=O)OCC)cc1)C2=O (some centres not stated)	inconclusive: 4.59%	–
O=C(Nc1cccc(/C=C/c2ccccn2)c1)c1cc(Cl)ccn1	–	inconclusive: 17.8 µM [falling, partial curve]
C#CCN1C(C)=C(C(=O)OC)C(c2cccc([N+](=O)[O-])c2)C(C(=O)OCC)=C1C (configuration not stated)	inactive	–
O=C(NCCN1CCOCC1)c1cc(-c2ccc(Cl)c(Cl)c2)on1	inconclusive: 6.3%	–
CCCn1c(O)c(N=NC(=O)CNC(=O)c2cccnc2)c2ccccc21	inconclusive: -8.65%	–
O=C(NNC(=O)c1ccc(Cl)c([N+](=O)[O-])c1)c1ccncc1	–	inconclusive: 35.5 µM [falling, single point]
Cc1ccccc1-c1nc2cc(Cl)ccc2o1	inconclusive: 1.7%	–
COc1ccc(-c2nn(-c3ccccc3)cc2/C=N/NC(=S)NC(C)C)cc1OC	inconclusive: 1.41%	–
c1cnc2c(Oc3ncnc4sccc34)cccc2c1	–	inconclusive: 17.8 µM [falling, single point]
Cc1ccc(C(=O)COC(=O)COc2ccccc2[N+](=O)[O-])s1	inconclusive: 0.888%	–
CCOc1ccccc1-c1cc(C(=O)Nc2ccc(C(=O)O)cc2)c2ccccc2n1	inactive	–
CCC1CCCCN1S(=O)(=O)c1ccc(S(=O)(=O)N2CCN(S(=O)(=O)CC)CC2)cc1 (configuration not stated)	inconclusive: 17.9%	–
Cc1ccc(CNc2ncnc3c2cnn3-c2ccc(Cl)cc2)cc1	inactive	–
COc1cccc(CC(=O)Nc2ccc(-c3nc4ccccc4s3)cc2)c1	inconclusive: 11.1%	–
COCCn1c(=O)[nH]c2cc(C(=O)Nc3cccc(F)c3)ccc2c1=O	inconclusive: 2.05%	–
O=C(CN1CCOCC1)Nc1ccc(NC(=O)c2ccccc2F)cc1	inactive	–
Cc1nc(N)nc(N)c1/C=C/C(C)(C)c1ccc(Cl)cc1	–	inconclusive: 22.4 µM [falling, partial curve]
COc1ccc(C(=O)NCC(=O)N=Nc2c(O)n(C)c3ccccc23)cc1OC	inactive	–
O=C(COc1ccc(Br)cc1)NCc1ccccn1	inconclusive: 24.8%	–
CCCN(C(=O)c1nc2nc(C)cc(C)n2n1)c1c(N)n(Cc2ccccc2)c(=O)[nH]c1=O	inconclusive: -0.396%	–
Nn1c(COc2ccc(Cl)cc2)nc2ccccc2c1=O	inconclusive: 3.07%	–
Fc1ccc(CSc2ncnc3scc(-c4ccccc4)c23)cc1	inconclusive: 0.772%	–
COCCNC(=S)Nc1ccc(N2CCCCC2)cc1	inconclusive: 1.1%	–
CCOc1cc(/C=C2\SC(N3CCCC(C)C3)=NC2=O)ccc1O (configuration not stated)	–	inconclusive: 10 µM [falling, partial curve, poor fit]
C=CCN=C1S/C(=C/c2ccc([N+](=O)[O-])cc2)C(=O)N1CC=C	inconclusive: 12.1%	–
